The results in this text go back to patent US10251959B2, “Oligomer-beta blocker conjugates” (Nektar Therapeutics, priority 2007, dated 2019).

Sequences of proteins named here, by UniProt entry; tags and fusion partners are left off.
UniProt P07550, whole entry: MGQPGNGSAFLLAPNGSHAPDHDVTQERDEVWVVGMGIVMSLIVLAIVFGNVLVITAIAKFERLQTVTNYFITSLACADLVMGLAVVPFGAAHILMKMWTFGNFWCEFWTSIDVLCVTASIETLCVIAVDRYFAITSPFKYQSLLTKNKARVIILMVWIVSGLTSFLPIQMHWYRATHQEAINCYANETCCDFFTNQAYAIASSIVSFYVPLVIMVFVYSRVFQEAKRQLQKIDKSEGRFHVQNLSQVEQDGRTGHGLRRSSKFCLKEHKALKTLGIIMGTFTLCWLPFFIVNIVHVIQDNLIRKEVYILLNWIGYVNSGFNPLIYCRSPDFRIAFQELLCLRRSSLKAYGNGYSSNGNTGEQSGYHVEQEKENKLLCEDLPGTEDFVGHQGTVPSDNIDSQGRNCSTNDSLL

Each structure is given as a SMILES string. The structures given here were assigned with low confidence; some may be wrong.

The test has as its target adrenergic, beta-2 (human) (Homo sapiens, UniProt P07550). The test can be described thus: adrenergic, beta-2 (human) binding assay; HL-60 cells, isoproterenol, EIA read-out. As to conditions: Table 3, 300 μM IBMX, 100 nM isoproterenol, 20 minutes at room temperature. In kind it is cell-based.

As for `COCCOCCOCCOC(CNC(C)(C)C)COc1nsnc1N1CCOCC1` (stereo not shown), the IC50 – broadly, the concentration that inhibits the measured activity by half – was 4.59 µM.
